No constants are given. Whether binding was seen depends on the method and setting. Some binding calls cover weakened binding; strength is not graded here.

The chains behind the UniProt entries cited, without tags or fusion partners. Where a name states a change or a piece, a line headed by the entry shows the natural chain unless it says otherwise.
UniProt P48061: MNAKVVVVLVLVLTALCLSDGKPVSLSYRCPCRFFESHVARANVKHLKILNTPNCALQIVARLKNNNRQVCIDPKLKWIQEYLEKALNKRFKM

The target of experiment [1] is biotinylated CXCL12 (synthesised 68 amino acid CXCL12) (human) (UniProt P48061). Description: SPR off-rate screen, Fab format.
The target is the same in experiment [2]. Description: SPR: Fab over biotinylated CXCL12 on a streptavidin chip. (In general: In SPR one partner is held on a chip, and binding of the other changes the refractive index at the surface.)

B1: 113_1H12 Fab (Fab, V domains shown)
VH: EVQLVQSGAEVKKPGASVKVSCKTSGYTFTNYGISWVRQAPGQGLEWMGWISAYNGNTNYAQKLQGRVTMTTDTSTSTAYMELRSLRSDDTAVYYCARAGGVYYDYFTDYWGQGTMVTVSS
VL: QSELTQPPSASGTPGQRVTISCSGSRSNIGSNSVNWYQQLPGTAPKLLIYNNDERPSGVPDRFSGSKSGTSASLAISGLQSEDEADYFCAAWDDSLNVGELFGGGTKLTVLG
Consider B1, for which the binding result in experiment [1] and in experiment [2] was “binds” throughout.

B2: 114_3H1 Fab (Fab, V domains shown)
VH: QVQLVQSGAEVKKPGASVKVSCKVSGYTLTELSMHWVRQAPGKGLEWMGGFDPEDGETIYAQKFQGRVTMTEDTSTDTAYMELSSLGSEDTAVYYCARRVWGSYRPNDAFDIWGQGTLVTVSS
VL: DIQMTQSPSSLSASVGDRVTITCRASQSISDYVNWYQQKPGKAPNLLMFAASTSQSGVPSRFTGSGSGTDFTLTISSLQPEDFATYFCQQSYSPPYTFGQGTKVEIKR
For B2, the binding entry in experiment [1] is on record as “binds”.

For the origin of these results see US20170362314A1.
